The text below walks through data of the supplement of paper PMC4604168 (melanoma cell lines).

The other results are listed elsewhere or left out. Repeats are few or missing, and single values can be far off.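 Imaging used 1,536-well plates; nuclei positive for cleaved PARP by antibody were divided by total DNA-stained nuclei to yield the apoptosis fraction. Doses for screening kept most cells viable, and cell lines differ markedly in resting and induced cleaved-PARP levels.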

In the test the test system is IPC-298. The test is described as follows: cleaved PARP positive nuclei fraction relative to DMSO control; melanoma cells; higher = more apoptosis. The note with it: library dose: low library concentration; 72 h.
As to `Nc1cccc2c1CN(C1CCC(=O)NC1=O)C2=O` (stereo not drawn) [lenalidomide] + O=C(Oc1ccc([N+](=O)[O-])cc1)N1CCC(C(O)(c2ccc3c(c2)OCO3)c2ccc3c(c2)OCO3)CC1 [JZL184] (first compound 1 µM, partner dose 1 µM), the “cleaved PARP positive nuclei fraction” value came out at 175%.
Under `Cn1cncc1[C@@](N)(c1ccc(Cl)cc1)c1ccc2c(c1)c(-c1cccc(Cl)c1)cc(=O)n2C` [tipifarnib] + C/C(O)=C(\C#N)C(=O)Nc1cc(Br)ccc1Br [LFM-A13] (first compound 0.01 µM, partner dose 2 µM) stands 416%; under `COc1cc(Nc2ncc(F)c(Nc3ccc4c(n3)NC(=O)C(C)(C)O4)n2)cc(OC)c1OC` [Tamatinib] + C/C(O)=C(\C#N)C(=O)Nc1cc(Br)ccc1Br [LFM-A13] (first compound 0.4 µM, partner dose 2 µM), 49.2%.
